Laboratory results as given in patent US10265413B2, “High molecular weight biodegradable gelatin-doxorubicin conjugate” (priority 2014, dated 2019).

Experiments:
PC3 cells = assay: Cell growth inhibition (AlamarBlue), PC3; format: cell-based; settings: Homo sapiens, PC-3; PC3, 72 hours, DOX equivalent concentration
Description: (§1) MCF7 cells were maintained in EMEM growth media with 10% fetal bovine serum and 0.01 mg/mL recombinant human insulin. Growth inhibition experiments were performed in the above media with the addition of penicillin at 100 units/mL and streptomycin at 0.1 mg/mL. PC3 cells were maintained in RPMI 1640 with 10% fetal bovine serum with penicillin and streptomycin at the above concentrations for growth inhibition experiments. Cells were grown in 75 cm^2 flasks at 37° C. with 5% CO2. They were routinely passed once achieving 85% confluence by rinsing 3 times with 5 mL Dulbecco's PBS and detached using 2 mL of trypsin/EDTA solution. Cells were resuspended in fresh growth medium and seeded at either 1×10^5 cells (PC3) or 1×10^6 cells (MCF7). […]
(§2) Cell growth was determined by AlamarBlue assay following incubation. […] Initial fluorescence at 530/590 nm (F0) was measured using a Perkin Elmer Victor3 1420 bench top plate reader. The percent growth value was obtained by dividing the fluorescence for the drug wells by the fluorescence for the control wells after subtracting the fluorescence from the 24 hr control plate from both. […]
(§3) The % growth vs. Log [DOX] equivalent concentration (μM) data was fit to a four parameter logistic curve reporting a minimum, maximum, Hillslope, and IC50. Standard error of the IC50 values were determined from the program output. […]

MCF7 cells = assay: Cell growth inhibition (AlamarBlue), MCF7; format: cell-based; settings: Homo sapiens; MCF7, 72 hours, DOX equivalent concentration
Description: as §1, §2, §3

IC50 (PC3 cells): 0.09 ± 0.038 µM | IC50 (MCF7 cells): 0.336 ± 0.251 µM
Compound: COc1cccc2c1C(=O)c1c(O)c3c(c(O)c1C2=O)C[C@@](O)(C(=O)CO)C[C@@H]3O[C@H]1C[C@H](N)[C@H](O)[C@H](C)O1 [DOX, (7S,9S)-7-[(2R,4S,5S,6S)-4-amino-5-hydroxy-6-methyloxan-2-yl]oxy-6,9,11-trihydroxy-9-(2-hydroxyacetyl)-4-methoxy-8,10-dihydro-7H-tetracene-5,12-dione]
